Here are results for 2 molecules from PMC7228087.

Results are given in words; binding and its absence hold for the method and conditions named. Binding seen in cells or lysates may run through a third protein. Some binding calls cover weakened binding; strength is not graded here. For part of these data: Where a sequence is shown, tags or fusion partners need not be part of it.

Assay [1] addresses Atp9 with the V68C and S69C mutations (S. cerevisiae) (UniProt P61829). The experiment in a line: cross-linking; radiolabelled Atco purified on protein C antibody beads from mss51 pet494 double mutant mitochondria, incubated with and without CuP; SDS-PAGE on a 15% gel with and without 1% beta-mercaptoethanol.
For assay [2] the target is unchanged. Nature of the assay: cross-linking; Atp9 ring of the ATP synthase: submitochondrial particles treated with 1.5 mM CuP for 1 h; with or without 5% TCA before SDS sample buffer without beta-mercaptoethanol; SDS-PAGE on a 15% gel, Western blot. On the technique in general: A western blot detects proteins with antibodies after separation by electrophoresis.
Assay [3] deals with T1, Atp6 with a tandem hemagglutinin plus poly histidine tag (S. cerevisiae) (UniProt P00854).
T1 sequence: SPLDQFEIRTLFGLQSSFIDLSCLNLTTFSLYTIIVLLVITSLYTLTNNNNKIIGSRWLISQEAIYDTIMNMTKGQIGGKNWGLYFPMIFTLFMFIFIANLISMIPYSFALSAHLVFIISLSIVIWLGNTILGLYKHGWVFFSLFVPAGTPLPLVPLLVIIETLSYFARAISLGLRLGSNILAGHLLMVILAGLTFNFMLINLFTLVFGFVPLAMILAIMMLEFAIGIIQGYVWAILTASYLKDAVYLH
The experiment in a line: pull-down; Atp6-HApH held on Ni-NTA beads; 2% digitonin extracts of mitochondria pulse-labelled with 35S-methionine/cysteine for 5 or 10 min and chased for 0, 30 or 60 min; SDS-PAGE, BN-PAGE and 2D gels.

B1: Atp9 with the V68C and S69C mutations (protein, UniProt P61829 1-76)
chain: MQLVLAAKYIGAGISTIGLLGAGIGIAIVFAALINGVSRNPSIKDTVFPMAILGFALSEATGLFCLMCCFLLLFGV
In the case of B1, the binding entry in assay [1] and in assay [2] was “binds” each time.

MPQLVPFYFMNQLTYGFLLMITLLILFSQFFLPMILRLYVSRLFISKL (peptide, UniProt P00856 1-48) [Atp8]: the binding result in assay [3] was “binds”.
